The source of these data is patent US20090258426A1.

No constants are given. Whether binding was seen depends on the method and setting. Some entries that bind do so weakly or less than the wild type.

Assay [1] has as its target neural thread protein (NTP), preparation not stated. The assay can be described thus: peptide conjugated to rabbit IgG, assessed for NTP immunoreactivity.
Assay [2] deals with neural thread protein (NTP), native, in urine of patients (human). The assay can be described thus: NTP-3 agarose affinity column, pH 2 eluate tested by 7C Gold strip and SDS gel.
Assay [3] shares this target. The assay can be described thus: NTP-3 agarose affinity column.

Turning to RTGHHARLCLANFC (C* (the cysteine in H A R L C*L) blocked with Acetamido Methyl (C3H6NO)) [Harlil peptide NTP-5], the binding entry in assay [1] is on record as “binds”.

As for LARLCLANFCGNNNV [Harlil peptide NTP-2], in assay [1], the binding result is listed as “binds”.

As to CARYRTGHHARLM [Harlil peptide NTP-3], the binding entry in assay [1], in assay [2] and in assay [3] was “binds” in each case.

Turning to SHHARLIL [Harlil peptide NTP-8], the binding result in assay [1] was “binds”.

In the case of LHARLCLANFCGRNRV [Harlil peptide NTP-1], the binding entry in assay [1] is “binds”.

In the case of CESARYRTGHHARLC (C* (C-terminal cysteine) blocked with Acetamido Methyl (C3H6NO)) [Harlil peptide NTP-6], the binding entry in assay [1] is reported as “binds”.

Regarding HHARLPLANFCG [Harlil peptide NTP-4], the binding entry in assay [1] is “binds”.

DNTHHARLIL [Harlil peptide NTP-7]: in assay [1], the binding result is listed as “binds”.
